In the supplement of paper PMC8728848:
The list shows a part of the results.

Experiments:
Assay in all cases: glycan array binding signal (z-score within array); higher = stronger binding
Details in all cases: glycan notation: IUPAC condensed, linker removed
[1] = target: Fuc(a1-2)Gal6S(b1-3)GlcNAc6S
How it was run: (§1)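 The Consortium for Functional Glycomics database supplied 3228 glycan arrays, of which those lacking an available protein sequence were dropped. The binding signal, a within-array Z-score, was averaged across arrays of the same protein sequence and across linkers. Negative scores can be read as non-binding.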

[2] = target: Fuc(a1-2)Gal6S(b1-4)Glc
How it was run: as §1

[3] = target: Fuc(a1-2)Gal6S(b1-4)Glc6S
How it was run: as §1

[4] = target: Fuc(a1-2)[Gal(a1-3)]Gal
How it was run: as §1

[5] = target: Fuc(a1-2)[Gal(a1-3)]Gal(b1-3)GalNAc
How it was run: as §1

[6] = target: Fuc(a1-2)[Gal(a1-3)]Gal(b1-3)GalNAc(b1-3)Gal(a1-4)Gal(b1-4)Glc
How it was run: as §1

[7] = target: Fuc(a1-2)[Gal(a1-3)]Gal(b1-3)GlcNAc
How it was run: as §1

[8] = target: Fuc(a1-2)[Gal(a1-3)]Gal(b1-3)GlcNAc(b1-2)Man(a1-3)[Fuc(a1-2)[Gal(a1-3)]Gal(b1-3)GlcNAc(b1-2)Man(a1-6)]Man(b1-4)GlcNAc(b1-4)GlcNAc
How it was run: as §1

[9] = target: Fuc(a1-2)[Gal(a1-3)]Gal(b1-3)GlcNAc(b1-2)Man(a1-3)[Fuc(a1-2)[Gal(a1-3)]Gal(b1-3)GlcNAc(b1-2)Man(a1-6)]Man(b1-4)GlcNAc(b1-4)[Fuc(a1-6)]GlcNAc
How it was run: as §1

[10] = target: Fuc(a1-2)[Gal(a1-3)]Gal(b1-3)GlcNAc(b1-3)GalNAc
How it was run: as §1

[11] = target: Fuc(a1-2)[Gal(a1-3)]Gal(b1-3)GlcNAc(b1-6)GalNAc
How it was run: as §1

[12] = target: Fuc(a1-2)[Gal(a1-3)]Gal(b1-4)Glc
How it was run: as §1

[13] = target: Fuc(a1-2)[Gal(a1-3)]Gal(b1-4)GlcNAc
How it was run: as §1

[14] = target: Fuc(a1-2)[Gal(a1-3)]Gal(b1-4)GlcNAc(b1-2)Man
How it was run: as §1

[15] = target: Fuc(a1-2)[Gal(a1-3)]Gal(b1-4)GlcNAc(b1-2)Man(a1-3)[Fuc(a1-2)[Gal(a1-3)]Gal(b1-4)GlcNAc(b1-2)Man(a1-6)]Man(b1-4)GlcNAc(b1-4)GlcNAc
How it was run: as §1

[16] = target: Fuc(a1-2)[Gal(a1-3)]Gal(b1-4)GlcNAc(b1-2)Man(a1-3)[Fuc(a1-2)[Gal(a1-3)]Gal(b1-4)GlcNAc(b1-2)Man(a1-6)]Man(b1-4)GlcNAc(b1-4)[Fuc(a1-6)]GlcNAc
How it was run: as §1

[17] = target: Fuc(a1-2)[Gal(a1-3)]Gal(b1-4)GlcNAc(b1-3)GalNAc
How it was run: as §1

[18] = target: Fuc(a1-2)[Gal(a1-3)]Gal(b1-4)GlcNAc(b1-3)[Fuc(a1-2)[Gal(a1-3)]Gal(b1-4)GlcNAc(b1-6)]GalNAc
How it was run: as §1

[19] = target: Fuc(a1-2)[Gal(a1-3)]Gal(b1-4)GlcNAc(b1-6)GalNAc
How it was run: as §1

[20] = target: Fuc(a1-2)[Gal(a1-3)]Gal(b1-4)[Fuc(a1-3)]Glc
How it was run: as §1

[21] = target: Fuc(a1-2)[Gal(a1-3)]Gal(b1-4)[Fuc(a1-3)]GlcNAc
How it was run: as §1

[22] = target: Fuc(a1-2)[Gal(a1-3)]Gal(b1-4)[Fuc(a1-3)]GlcNAc(b1-3)GalNAc
How it was run: as §1

[23] = target: Fuc(a1-2)[Gal(a1-4)]Gal(b1-4)GlcNAc
How it was run: as §1

[24] = target: Fuc(a1-2)[GalNAc(a1-3)]Gal
How it was run: as §1

[25] = target: Fuc(a1-2)[GalNAc(a1-3)]Gal(b1-3)GalNAc(a1-3)[Fuc(a1-2)]Gal(b1-4)GlcNAc
How it was run: as §1

[26] = target: Fuc(a1-2)[GalNAc(a1-3)]Gal(b1-3)GalNAc(b1-3)Gal(a1-4)Gal(b1-4)Glc
How it was run: as §1

[27] = target: Fuc(a1-2)[GalNAc(a1-3)]Gal(b1-3)GlcNAc
How it was run: as §1

[28] = target: Fuc(a1-2)[GalNAc(a1-3)]Gal(b1-3)GlcNAc(b1-2)Man(a1-3)[Fuc(a1-2)[GalNAc(a1-3)]Gal(b1-3)GlcNAc(b1-2)Man(a1-6)]Man(b1-4)GlcNAc(b1-4)GlcNAc
How it was run: as §1

[29] = target: Fuc(a1-2)[GalNAc(a1-3)]Gal(b1-3)GlcNAc(b1-2)Man(a1-3)[Fuc(a1-2)[GalNAc(a1-3)]Gal(b1-3)GlcNAc(b1-2)Man(a1-6)]Man(b1-4)GlcNAc(b1-4)[Fuc(a1-6)]GlcNAc
How it was run: as §1

[30] = target: Fuc(a1-2)[GalNAc(a1-3)]Gal(b1-3)GlcNAc(b1-3)GalNAc
How it was run: as §1

[31] = target: Fuc(a1-2)[GalNAc(a1-3)]Gal(b1-3)GlcNAc(b1-6)GalNAc
How it was run: as §1

[32] = target: Fuc(a1-2)[GalNAc(a1-3)]Gal(b1-4)Glc
How it was run: as §1

[33] = target: Fuc(a1-2)[GalNAc(a1-3)]Gal(b1-4)GlcNAc
How it was run: as §1

[34] = target: Fuc(a1-2)[GalNAc(a1-3)]Gal(b1-4)GlcNAc(b1-2)Man
How it was run: as §1

[35] = target: Fuc(a1-2)[GalNAc(a1-3)]Gal(b1-4)GlcNAc(b1-2)Man(a1-3)[Fuc(a1-2)[GalNAc(a1-3)]Gal(b1-4)GlcNAc(b1-2)Man(a1-6)]Man(b1-4)GlcNAc(b1-4)GlcNAc
How it was run: as §1

[36] = target: Fuc(a1-2)[GalNAc(a1-3)]Gal(b1-4)GlcNAc(b1-2)Man(a1-3)[Fuc(a1-2)[GalNAc(a1-3)]Gal(b1-4)GlcNAc(b1-2)Man(a1-6)]Man(b1-4)GlcNAc(b1-4)[Fuc(a1-6)]GlcNAc
How it was run: as §1

[37] = target: Fuc(a1-2)[GalNAc(a1-3)]Gal(b1-4)GlcNAc(b1-3)Gal(b1-4)GlcNAc
How it was run: as §1

[38] = target: Fuc(a1-2)[GalNAc(a1-3)]Gal(b1-4)GlcNAc(b1-3)Gal(b1-4)GlcNAc(b1-3)Gal(b1-4)GlcNAc
How it was run: as §1

[39] = target: Fuc(a1-2)[GalNAc(a1-3)]Gal(b1-4)GlcNAc(b1-3)GalNAc
How it was run: as §1

[40] = target: Fuc(a1-2)[GalNAc(a1-3)]Gal(b1-4)GlcNAc(b1-3)[Fuc(a1-2)[GalNAc(a1-3)]Gal(b1-4)GlcNAc(b1-6)]GalNAc
How it was run: as §1

[41] = target: Fuc(a1-2)[GalNAc(a1-3)]Gal(b1-4)GlcNAc(b1-6)GalNAc
How it was run: as §1

[42] = target: Fuc(a1-2)[GalNAc(a1-3)]Gal(b1-4)[Fuc(a1-3)]GlcNAc
How it was run: as §1

[43] = target: Fuc(a1-2)[GalNAc(a1-3)]Gal(b1-4)[Fuc(a1-3)]GlcNAc(b1-3)GalNAc
How it was run: as §1

[44] = target: Fuc(a1-2)[GalNAc(a1-4)]Gal(b1-4)GlcNAc
How it was run: as §1

[45] = target: Fuc(a1-2)[GalNAc(b1-3)]Gal
How it was run: as §1

B1: PX14375D-bvu-513-34-513 (Bacteroides vulgatus) (protein)
chain: TEDTFWKDETDFNLALTSCYTPLKNALNGGYYGTRGVMLRIARADEVDFRNDISDVYTVNRFTNSNTNSLTQGMFYQFYNALYRTNSIMQKLEEKKEQFSTDFQNSVKGECLFIRGFYLFQLAKEFKDAPLRLTASQSPSTFPLAKSSQADIWAQAKEDLKTAASLLPITNKIGKPTQGAAYAALGKIYVYEENWQEAINVLEPLTQNPYTYKLVEDFNWNFDDTHENNAESIFELLIEDVGGTDLWGDGENINSTQSNTRPKEYAAAEVGGWYEANPTQQIMDIFWKEKDKDGNFDYRARCSVAWDYEGCTYYQRPFREVFAQDKWKTYWILKYQNWKTQKDEPAPPKSFINERAIRYADVLLMLAEAYMNKGALDTSIGYINQIRRRANLNDYSGPITKEGVFEDLVHQRAIEFFVEGERFYDLRRWGLLEQTLKTCDDTRYKNYQTGKSDNINKFNYFPIPAKELDTNPLCTPSEGW
B1 was tested, and the “glycan array binding signal (z-score)” value [1] was 0.181, the “glycan array binding signal (z-score)” value [2] was -0.059 and the “glycan array binding signal (z-score)” value [3] was 0.401. For the same binder, the “glycan array binding signal (z-score)” value [4] was -0.333, the “glycan array binding signal (z-score)” value [5] was -0.307 and the “glycan array binding signal (z-score)” value [6] was -0.844. For the same binder, the “glycan array binding signal (z-score)” value [7] was 0.914, the “glycan array binding signal (z-score)” value [8] was -0.075 and the “glycan array binding signal (z-score)” value [9] was 0.63. The “glycan array binding signal (z-score)” value [10] was -0.366, the “glycan array binding signal (z-score)” value [11] was -1.06 and the “glycan array binding signal (z-score)” value [12] was -0.215. For the same binder, the “glycan array binding signal (z-score)” value [13] was -0.638, the “glycan array binding signal (z-score)” value [14] was 0.468 and the “glycan array binding signal (z-score)” value [15] was -0.089. For the same binder, the “glycan array binding signal (z-score)” value [16] was 0.046, the “glycan array binding signal (z-score)” value [17] was -0.214 and the “glycan array binding signal (z-score)” value [18] was -0.422. For the same binder, the “glycan array binding signal (z-score)” value [19] was -0.028, the “glycan array binding signal (z-score)” value [20] was -0.016 and the “glycan array binding signal (z-score)” value [21] was -0.33. The “glycan array binding signal (z-score)” value [22] was 0.147, the “glycan array binding signal (z-score)” value [23] was -0.107 and the “glycan array binding signal (z-score)” value [24] was -0.245. For the same binder, the “glycan array binding signal (z-score)” value [25] was -0.866, the “glycan array binding signal (z-score)” value [26] was 0.771 and the “glycan array binding signal (z-score)” value [27] was -0.158. The “glycan array binding signal (z-score)” value [28] was -0.164, the “glycan array binding signal (z-score)” value [29] was -0.223 and the “glycan array binding signal (z-score)” value [30] was -0.689. For the same binder, the “glycan array binding signal (z-score)” value [31] was 0.63, the “glycan array binding signal (z-score)” value [32] was -0.644 and the “glycan array binding signal (z-score)” value [33] was -0.476. For the same binder, the “glycan array binding signal (z-score)” value [34] was -0.146, the “glycan array binding signal (z-score)” value [35] was 0.178 and the “glycan array binding signal (z-score)” value [36] was -0.159. The “glycan array binding signal (z-score)” value [37] was 0.158, the “glycan array binding signal (z-score)” value [38] was 0.129 and the “glycan array binding signal (z-score)” value [39] was -0.272. For the same binder, the “glycan array binding signal (z-score)” value [40] was -0.789, the “glycan array binding signal (z-score)” value [41] was -0.607 and the “glycan array binding signal (z-score)” value [42] was -0.2. For the same binder, the “glycan array binding signal (z-score)” value [43] was 1.33, the “glycan array binding signal (z-score)” value [44] was -0.303 and the “glycan array binding signal (z-score)” value [45] was -0.623.
